In article PMC4171630 one finds binding data, which are given here for one molecule.

Chains of the proteins cited; added tags and fusions are not shown.
UniProt P31749: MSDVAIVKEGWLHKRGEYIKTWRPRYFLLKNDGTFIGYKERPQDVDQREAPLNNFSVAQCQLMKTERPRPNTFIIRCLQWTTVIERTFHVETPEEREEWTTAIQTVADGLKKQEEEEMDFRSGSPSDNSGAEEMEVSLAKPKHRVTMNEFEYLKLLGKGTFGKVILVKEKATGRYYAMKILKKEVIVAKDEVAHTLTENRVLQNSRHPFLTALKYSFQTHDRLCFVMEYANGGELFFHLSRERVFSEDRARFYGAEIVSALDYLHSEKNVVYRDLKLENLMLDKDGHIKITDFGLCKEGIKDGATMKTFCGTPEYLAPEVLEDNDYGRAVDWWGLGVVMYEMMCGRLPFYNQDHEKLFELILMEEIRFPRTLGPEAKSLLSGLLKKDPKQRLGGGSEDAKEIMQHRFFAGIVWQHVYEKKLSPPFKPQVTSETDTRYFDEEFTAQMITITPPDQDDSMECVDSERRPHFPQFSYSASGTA

Results are given in words; binding and its absence hold for the method and conditions named. Binding seen in cells or lysates may run through a third protein. Some binding calls cover weakened binding; strength is not graded here. Tags and fused reporters may be left off the sequences shown.

The test deals with Myr-AKT (AKT with a myristoylation signal) (UniProt P31749). The test can be described thus: co-IP; HEK 293 cells co-transfected with FLAG-cPLA2α and Myr-AKT for 36 h, stimulated with EGF (25 ng/ml, 15 min); 0.5 mg total protein incubated overnight with 2 μg anti-FLAG, anti-AKT or control IgG antibody; eluted proteins immunoblotted with anti-cPLA2α, anti-AKT and anti-pAKT.

B1: FLAG-cPLA2α (cytosolic phospholipase A2α) (enzyme, UniProt P47712 1-749)
chain: MSFIDPYQHIIVEHQYSHKFTVVVLRATKVTKGAFGDMLDTPDPYVELFISTTPDSRKRTRHFNNDINPVWNETFEFILDPNQENVLEITLMDANYVMDETLGTATFTVSSMKVGEKKEVPFIFNQVTEMVLEMSLEVCSCPDLRFSMALCDQEKTFRQQRKEHIRESMKKLLGPKNSEGLHSARDVPVVAILGSGGGFRAMVGFSGVMKALYESGILDCATYVAGLSGSTWYMSTLYSHPDFPEKGPEEINEELMKNVSHNPLLLLTPQKVKRYVESLWKKKSSGQPVTFTDIFGMLIGETLIHNRMNTTLSSLKEKVNTAQCPLPLFTCLHVKPDVSELMFADWVEFSPYEIGMAKYGTFMAPDLFGSKFFMGTVVKKYEENPLHFLMGVWGSAFSILFNRVLGVSGSQSRGSTMEEELENITTKHIVSNDSSDSDDESHEPKGTENEDAGSDYQSDNQASWIHRMIMALVSDSALFNTREGRAGKVHNFMLGLNLNTSYPLSPLSDFATQDSFDDDELDAAVADPDEFERIYEPLDVKSKKIHVVDSGLTFNLPYPLILRPQRGVDLIISFDFSARPSDSSPPFKELLLAEKWAKMNKLPFPKIDPYVFDREGLKECYVFKPKNPDMEKDCPTIIHFVLANINFRKYRAPGVPRETEEEKEIADFDIFDDPESPFSTFNFQYPNQAFKRLHDLMHFNTLNNIDVIKEAMVESIEYRRQNPSRCSVSLSNVEARRFFNKEFLSKPKA
Consider B1, for which the binding result is given as “binds”.
